The assay deals with protein (albumin) in blood (UniProt P02768). The experiment in a line: SDS-PAGE and fluorescence imaging of supernatants of 5-fold diluted whole blood spiked with 2 uM labelled peptide, before and after heat treatment.

Protein sequences, listed by entry. Tags and fused reporters are not part of them. Residues count along the entry.
UniProt P02768, residues 25-609: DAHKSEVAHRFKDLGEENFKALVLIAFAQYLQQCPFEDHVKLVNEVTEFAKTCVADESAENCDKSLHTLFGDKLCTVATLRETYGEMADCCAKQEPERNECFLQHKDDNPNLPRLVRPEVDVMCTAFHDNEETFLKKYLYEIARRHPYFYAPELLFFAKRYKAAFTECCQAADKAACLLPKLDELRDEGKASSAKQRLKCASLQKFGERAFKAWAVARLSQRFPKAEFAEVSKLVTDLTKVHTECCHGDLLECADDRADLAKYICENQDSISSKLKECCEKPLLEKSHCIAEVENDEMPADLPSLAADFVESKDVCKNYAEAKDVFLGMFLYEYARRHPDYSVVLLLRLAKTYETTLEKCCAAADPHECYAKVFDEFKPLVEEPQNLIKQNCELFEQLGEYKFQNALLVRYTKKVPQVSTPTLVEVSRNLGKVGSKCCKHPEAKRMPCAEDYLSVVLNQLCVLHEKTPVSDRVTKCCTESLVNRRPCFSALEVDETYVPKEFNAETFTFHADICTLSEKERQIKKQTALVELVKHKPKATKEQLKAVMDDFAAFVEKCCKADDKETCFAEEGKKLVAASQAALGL

These are yes or no findings as the source states them, for the method shown. Some binding calls cover weakened binding; strength is not graded here.

As for CYIQNCPLG (tetramethyl rhodamine (TMR) label, position not stated) [TMR-oxytocin], the binding entry is “binds”.

The values are drawn from US20170057991A1.
